Source: US6022851A, “Lantibiotic related to actagardine, and processes for the preparation and use thereof” (priority 1997, dated 2000)
Values after ≈ are worked out from the molar mass of the structure shown. Read-outs that look alike come from different tables or passages of the source. At least one peptide structure holds a part that was inferred or is arguable (an end, a ring closure or a residue).

Experiments:
Type in all cases: cell-based
S. epidermidis 799 = assay: In-vitro activity, serial dilution test (MIC)
S. pyogenes VR3 = assay: In-vitro activity, serial dilution test (MIC)
E. faecium VR2 = assay: In-vitro activity, serial dilution test (MIC)
S. pyogenes 77A = assay: In-vitro activity, serial dilution test (MIC)
Clostrid. tetani 9406 = assay: In-vitro activity, serial dilution test (MIC)
Staph. aureus FH 1982 = assay: In-vitro activity, serial dilution test (MIC)
Propionib. acnes 6922 = assay: In-vitro activity, serial dilution test (MIC)
S. epidermidis 6098W = assay: In-vitro activity, serial dilution test (MIC)
Staph. aureus 707 E = assay: In-vitro activity, serial dilution test (MIC)
E. faecium VR1 = assay: In-vitro activity, serial dilution test (MIC)
Staph. aureus SG 511 = assay: In-vitro activity, serial dilution test (MIC)
Staph. aureus 285 = assay: In-vitro activity, serial dilution test (MIC)
Staph. aureus 8236 = assay: In-vitro activity, serial dilution test (MIC)
S. pyogenes A561 = conditions: incubation time 24 h
Excerpt: (§1) Tables 4 to 6 show the in-vitro antibacterial activity (MIC values[μg/ml]) of the actagardine (Acta) and of the compounds according to the invention.

S. aureus Exp54146 = conditions: incubation time 24 h
Excerpt: as §1

E. Coli = conditions: incubation time 24 h
Excerpt: as §1

S. aureus SG511 = conditions: incubation time 24 h
Excerpt: as §1

S. aureus 011CB20 = assay: in-vitro antibacterial activity (MIC), incubation time 18 h; conditions: incubation time 18 h
Staph. aureus 9 Tub. = assay: In-vitro activity, serial dilution test (MIC)
S. epidermidis 763 = assay: In-vitro activity, serial dilution test (MIC)
S. epidermidis ZH2c = assay: In-vitro activity, serial dilution test (MIC)
S. epidermidis 291 = assay: In-vitro activity, serial dilution test (MIC)
E. faecium Md8B = assay: In-vitro activity, serial dilution test (MIC)
[1] = system: Clostrid. perfringens 194; parameters: unit not given beside the values
Staph. aureus 701 E = assay: In-vitro activity, serial dilution test (MIC)
Staph. aureus 503 = assay: In-vitro activity, serial dilution test (MIC)
Propionib. acnes 6919 = assay: In-vitro activity, serial dilution test (MIC)
S. pyogenes 308A = assay: In-vitro activity, serial dilution test (MIC)
S. epidermidis 5747IIW = assay: In-vitro activity, serial dilution test (MIC)
S. epidermidis 012GO20 = assay: in-vitro antibacterial activity (MIC), incubation time 18 h; conditions: incubation time 18 h
Excerpt: as §1

S. aureus 011HT3 = assay: as above; conditions: incubation time 18 h
Excerpt: as §1

E. faecalis 02D2HM9 = assay: as above; conditions: incubation time 18 h
Excerpt: as §1

S. pyogenes 02A1UC1 = assay: as above; conditions: incubation time 18 h
Excerpt: as §1

S. aureus 011DU5 = assay: as above; conditions: incubation time 18 h
Excerpt: as §1

Strepto gr. G 02G0CB2 = assay: as above; conditions: incubation time 18 h
Excerpt: as §1

S. mitis 02mitGR16 = assay: as above; conditions: incubation time 18 h
Excerpt: as §1

S. aureus 011HT1 = assay: as above; conditions: incubation time 18 h
Excerpt: as §1

[2] = system: Staph. coag. negative 012HT5; assay: as above; conditions: incubation time 18 h
Excerpt: as §1

E. faecalis 02D2DU18 = assay: as above; conditions: incubation time 18 h
Excerpt: as §1

S. milleri 02milGR12 = assay: as above; conditions: incubation time 18 h
Excerpt: as §1

S. pneumoniae 030BI2 = assay: as above; conditions: incubation time 18 h
Excerpt: as §1

S. pyogenes O2A1SJ1 = assay: as above; conditions: incubation time 18 h
Excerpt: as §1

E. faecalis 02D2UC5 = assay: as above; conditions: incubation time 18 h
Excerpt: as §1

E. faecalis 02D2HT10 = assay: as above; conditions: incubation time 18 h
Excerpt: as §1

S. aureus 0121O64 = assay: as above; conditions: incubation time 18 h
Excerpt: as §1

S. epidermidis 012GO42 = assay: as above; conditions: incubation time 18 h
Excerpt: as §1

S. pyogenes 02A1FI6 = assay: as above; conditions: incubation time 18 h
Excerpt: as §1

S. aureus 011HT18 = assay: as above; conditions: incubation time 18 h
Excerpt: as §1

CC[C@H](C)[C@@H]1NC(=O)C2NC(=O)[C@H](CC(C)C)NC(=O)C(NC(=O)C3CSCC(NC(=O)[C@H](C)N)C(=O)N[C@@H](CO)C(=O)NCC(=O)N[C@@H](Cc4c[nH]c5ccccc45)C(=O)N[C@@H](C(C)C)C(=O)N3)C(C)SCC(NC(=O)[C@H](CCC(=O)O)NC1=O)C(=O)NCC(=O)NC1C(=O)N[C@@H](C(C)C)C(=O)N[C@@H]([C@@H](C)CC)C(=O)NC(CSC2C)C(=O)N[C@@H](C)C(=O)NC(C(=O)O)C[S+]([O-])C1C (stereo partly drawn) [Ala(0)-actagardine]
MIC values (S. epidermidis 799): 6.25 µg/mL (≈ 3.19 µM) | MIC values (S. pyogenes VR3): 25 µg/mL (≈ 12.7 µM) | MIC values (E. faecium VR2): 50 µg/mL (≈ 25.5 µM) | MIC values (S. pyogenes 77A): 0.195 µg/mL (≈ 0.0994 µM) | MIC values (Clostrid. tetani 9406): 8.0 µg/mL (≈ 4.08 µM) | MIC values (Staph. aureus FH 1982): 12.5 µg/mL (≈ 6.37 µM) | MIC values (Propionib. acnes 6922): 1.0 µg/mL (≈ 0.51 µM) | MIC values (S. epidermidis 6098W): 12.5 µg/mL (≈ 6.37 µM) | MIC values (Staph. aureus 707 E): 12.5 µg/mL (≈ 6.37 µM) | MIC values (E. faecium VR1): 50 µg/mL (≈ 25.5 µM) | MIC values (Staph. aureus SG 511): 6.25 µg/mL (≈ 3.19 µM) | MIC values (Staph. aureus 285): 6.25 µg/mL (≈ 3.19 µM) | MIC values (Staph. aureus 8236): 6.25 µg/mL (≈ 3.19 µM) | MIC values (S. pyogenes A561): <= 0.04 μg/ml | MIC values (S. aureus Exp54146): 40 µg/mL (≈ 20.4 µM) | MIC values (E. Coli): > 40 µg/mL | MIC values (S. aureus SG511; S. aureus SG511 + 10% serum): 20 µg/mL | MIC values (S. aureus SG511; S. aureus SG511): 5 µg/mL (≈ 2.55 µM) | MIC values (S. aureus 011CB20): > 40 µg/mL | MIC values (Staph. aureus 9 Tub.): 6.25 µg/mL (≈ 3.19 µM) | MIC values (S. epidermidis 763): 6.25 µg/mL (≈ 3.19 µM) | MIC values (S. epidermidis ZH2c): 6.25 µg/mL (≈ 3.19 µM) | MIC values (S. epidermidis 291): 12.5 µg/mL (≈ 6.37 µM) | MIC values (E. faecium Md8B): 6.25 µg/mL (≈ 3.19 µM) | MIC values [1]: 0.5 | MIC values (Staph. aureus 701 E): 12.5 µg/mL (≈ 6.37 µM) | MIC values (Staph. aureus 503): 3.13 µg/mL (≈ 1.6 µM) | MIC values (Propionib. acnes 6919): 1.0 µg/mL (≈ 0.51 µM) | MIC values (S. pyogenes 308A): 6.25 µg/mL (≈ 3.19 µM) | MIC values (S. epidermidis 5747IIW): 6.25 µg/mL (≈ 3.19 µM) | MIC values (S. epidermidis 012GO20): > 40 µg/mL | MIC values (S. aureus 011HT3; S. aureus 011HT3 + 10% serum): 20 µg/mL | MIC values (S. aureus 011HT3; S. aureus 011HT3 + 50% serum): 40 µg/mL | MIC values (S. aureus 011HT3; S. aureus 011HT3): 20 µg/mL (≈ 10.2 µM) | MIC values (E. faecalis 02D2HM9): > 40 µg/mL | MIC values (S. pyogenes 02A1UC1): <= 0.04 μg/ml | MIC values (S. aureus 011DU5): 40 µg/mL (≈ 20.4 µM) | MIC values (Strepto gr. G 02G0CB2): 20 µg/mL (≈ 10.2 µM) | MIC values (S. mitis 02mitGR16): 20 µg/mL (≈ 10.2 µM) | MIC values (S. aureus 011HT1): 1.1 µg/mL (≈ 0.561 µM) | MIC values [2]: > 40 µg/mL | MIC values (E. faecalis 02D2DU18): 5 µg/mL (≈ 2.55 µM) | MIC values (S. milleri 02milGR12): 40 µg/mL (≈ 20.4 µM) | MIC values (S. pneumoniae 030BI2): 2.5 µg/mL (≈ 1.27 µM) | MIC values (S. pyogenes O2A1SJ1): <= 0.04 μg/ml | MIC values (E. faecalis 02D2UC5): 20 µg/mL (≈ 10.2 µM) | MIC values (E. faecalis 02D2HT10): > 40 µg/mL | MIC values (S. aureus 0121O64): > 40 µg/mL | MIC values (S. epidermidis 012GO42): > 40 µg/mL | MIC values (S. pyogenes 02A1FI6): <= 0.04 μg/ml | MIC values (S. aureus 011HT18): > 40 µg/mL
